Test results published in paper doi:10.1101/2020.02.07.938951.
No constants are given. Whether binding was seen depends on the method and setting. For some assays here: Binding seen in cells or lysates may run through a third protein. Some binding calls cover weakened binding; strength is not graded here. Where a sequence is shown, tags or fusion partners need not be part of it.

Columns and labels:
[1] = molecular target: T1, LexA-PIF4 (PHYTOCHROME … FACTOR 4 in pEG202) (Arabidopsis thaliana) (UniProt Q8W2F3); test: two-hybrid
T1 sequence: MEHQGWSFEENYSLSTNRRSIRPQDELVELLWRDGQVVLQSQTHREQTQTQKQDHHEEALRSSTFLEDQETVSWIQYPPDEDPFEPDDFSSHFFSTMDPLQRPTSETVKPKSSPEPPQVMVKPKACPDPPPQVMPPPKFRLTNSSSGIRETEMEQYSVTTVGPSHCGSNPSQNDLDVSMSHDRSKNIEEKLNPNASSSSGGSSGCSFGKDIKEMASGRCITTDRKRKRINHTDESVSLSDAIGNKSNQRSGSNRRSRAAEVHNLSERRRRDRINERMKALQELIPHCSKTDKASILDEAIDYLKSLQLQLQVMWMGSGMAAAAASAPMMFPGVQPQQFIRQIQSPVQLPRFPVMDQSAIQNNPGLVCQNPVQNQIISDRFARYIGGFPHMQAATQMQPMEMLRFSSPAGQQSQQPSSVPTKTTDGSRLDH

[2] = molecular target: T2, GST-PIF4 (Arabidopsis thaliana) (UniProt Q8W2F3); test: pull-down
T2 sequence: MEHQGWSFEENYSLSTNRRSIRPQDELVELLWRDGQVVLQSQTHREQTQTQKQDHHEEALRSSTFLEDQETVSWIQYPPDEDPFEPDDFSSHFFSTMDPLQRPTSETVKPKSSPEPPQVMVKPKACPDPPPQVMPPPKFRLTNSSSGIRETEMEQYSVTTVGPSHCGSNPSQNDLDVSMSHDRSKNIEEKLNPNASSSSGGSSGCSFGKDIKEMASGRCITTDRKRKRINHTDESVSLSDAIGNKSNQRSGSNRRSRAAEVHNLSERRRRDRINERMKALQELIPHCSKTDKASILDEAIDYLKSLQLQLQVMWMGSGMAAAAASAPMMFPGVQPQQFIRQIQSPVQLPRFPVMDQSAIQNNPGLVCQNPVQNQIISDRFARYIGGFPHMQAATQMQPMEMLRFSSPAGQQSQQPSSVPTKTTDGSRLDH

Row | Binder | binding [1] | binding [2]
1 | AD-SPA1 (SUPPRESSOR OF PHYA-105 1 in pJG4-5) (protein, UniProt Q9SYX2 1-1029) MPVMERVAEETVATNNIQLKARVDDVPCNKLDARHNDMVIQSETANSDCPGSSAHRNVDLTKPPPPEEAAGAKLSVEELTLGNYRIVQGSNNTNVDSPRAGKFEHLYRLARGSAFRAGDGDLDSQPRDMDQMLSRIRQQLAGAPSERQNLKPFMSRRSDQNLEAFSERLRAAGENSIMNAPALISEGVQMKTPVSSSNFSQLLLKRAMKGKGVVGKNQETPPEFVSDQDLGSKEKKLDISKSPTPHDVLPLKSSPKGNGMVSHGDGNHSKSSIGISLREFLRSSYAKREKRHGLCLFRQLVELVDSAHSKRLFLLDLRPSLFTLVPSKKLRYIGNFGKNDLESDVDEDLNRRRPVVEESSSGGRDSKKRKMDLHLNSPGNQLQATSTGRPFKRKSPVIDLNMVDARNPDSCELQQQDYIKNLSVSSVSRKQSMSTWLEEQWYTCPEEINGEDIGEKSNIYALGVLLFELLCHCESGEMHAAMMADLRHRILPPTFLSKYPKEAGFCLWLLHPEPSSRPSARDILKSELICEDDSVKSTAAAEEISELLLHFLSSLEVQKKKKASKLLQDIQTLEDDIKEAERRYSSNVSLVRSHGAIEKRVQSSPLDEHCTTSSALFVPTANTDRLMSNIRQLEDAYFFMRSQINLSSSAATARSDKTLKDRDRCSENQNENQDMSTKGKSSDQLEVFFEGLCKFARYSKFETCGTIRSGDLLNSASVVCSLSFDPDEEHIAAAGISKKIKIFDFNAFMNESVGVHYPLVEMVNKSKLSCVCWNSYIKNYLASTDYDGVVQIWDAGTGQGFSQYTEHQKRAWSVDFSPSDPTKFVSGSDDCSVKLWSINEKRSLGTIWSPANVCCVQFSSYSNHLLAFGSADYKVYCYDLRYVKTPWCTLAGHEKAVSYVKFMDSETIVSASTDNSLKLWNLNKTNSSGLSPGACSLTYKGHTNQKNFVGLSVLDGYIACGSETNEVYSYYKSLPMPMTSYKFGSVDPISGNEYFDDNGQFVSSVCWRKKSNMLVAANSTGNMKLLKLV | binds | –
2 | MBP-SPA1 (protein, UniProt Q9SYX2 1-1029) MPVMERVAEETVATNNIQLKARVDDVPCNKLDARHNDMVIQSETANSDCPGSSAHRNVDLTKPPPPEEAAGAKLSVEELTLGNYRIVQGSNNTNVDSPRAGKFEHLYRLARGSAFRAGDGDLDSQPRDMDQMLSRIRQQLAGAPSERQNLKPFMSRRSDQNLEAFSERLRAAGENSIMNAPALISEGVQMKTPVSSSNFSQLLLKRAMKGKGVVGKNQETPPEFVSDQDLGSKEKKLDISKSPTPHDVLPLKSSPKGNGMVSHGDGNHSKSSIGISLREFLRSSYAKREKRHGLCLFRQLVELVDSAHSKRLFLLDLRPSLFTLVPSKKLRYIGNFGKNDLESDVDEDLNRRRPVVEESSSGGRDSKKRKMDLHLNSPGNQLQATSTGRPFKRKSPVIDLNMVDARNPDSCELQQQDYIKNLSVSSVSRKQSMSTWLEEQWYTCPEEINGEDIGEKSNIYALGVLLFELLCHCESGEMHAAMMADLRHRILPPTFLSKYPKEAGFCLWLLHPEPSSRPSARDILKSELICEDDSVKSTAAAEEISELLLHFLSSLEVQKKKKASKLLQDIQTLEDDIKEAERRYSSNVSLVRSHGAIEKRVQSSPLDEHCTTSSALFVPTANTDRLMSNIRQLEDAYFFMRSQINLSSSAATARSDKTLKDRDRCSENQNENQDMSTKGKSSDQLEVFFEGLCKFARYSKFETCGTIRSGDLLNSASVVCSLSFDPDEEHIAAAGISKKIKIFDFNAFMNESVGVHYPLVEMVNKSKLSCVCWNSYIKNYLASTDYDGVVQIWDAGTGQGFSQYTEHQKRAWSVDFSPSDPTKFVSGSDDCSVKLWSINEKRSLGTIWSPANVCCVQFSSYSNHLLAFGSADYKVYCYDLRYVKTPWCTLAGHEKAVSYVKFMDSETIVSASTDNSLKLWNLNKTNSSGLSPGACSLTYKGHTNQKNFVGLSVLDGYIACGSETNEVYSYYKSLPMPMTSYKFGSVDPISGNEYFDDNGQFVSSVCWRKKSNMLVAANSTGNMKLLKLV | – | binds
